These are yes or no findings as the source states them, for the method shown. Some entries that bind do so weakly or less than the wild type.
Assays:
Aβ1-40 = Aβ1-40 (UniProt P05067); test: ELISA; plates coated with 4 ng/μL Aβ peptide for 16 h at 4 °C, blocked with 5% BSA; recombinant cystatin F dimer added for 3 h at 18.75-300 ng/mL; detected with cystatin F antibody, absorbance at 450 nm; both purified
Aβ1-42 = Aβ1-42 (UniProt P05067); test: as above
[1] = molecular target: cystatin F in human plasma (human (endogenous in plasma)) (UniProt O76096); test: condition: only with DTT (loading buffer with 20% DTT, boiled at 95 °C for 10 min); native gel or EMSA; same gel and western blot, loading buffer with 20% DTT, samples boiled at 95 °C for 10 min

By UniProt entry, the sequences of proteins in these tests, tags left out. Residues count along the entry.
Aβ1-42 (P05067, residues 672-713): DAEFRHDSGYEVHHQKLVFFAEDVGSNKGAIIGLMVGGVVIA
Aβ1-40 (P05067, residues 672-711): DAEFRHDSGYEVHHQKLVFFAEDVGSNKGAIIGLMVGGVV

Row | binding (Aβ1-40) | binding (Aβ1-42) | binding [1] | Binder
1 | binds | binds |  | recombinant cystatin F dimer protein (protein, UniProt O76096 20-145) GPSPDTCSQDLNSRVKPGFPKTIKTNDPGVLQAARYSVEKFNNCTNDMFLFKESRITRALVQIVKGLKYMLEVEIGRTTCKKNQHLRLDDCDFQTNHTLKQTLSCYSEVWVVPWLQHFEVPVLRCH
2 |  |  | no binding | cystatin F in human plasma (protein, UniProt O76096 20-145) GPSPDTCSQDLNSRVKPGFPKTIKTNDPGVLQAARYSVEKFNNCTNDMFLFKESRITRALVQIVKGLKYMLEVEIGRTTCKKNQHLRLDDCDFQTNHTLKQTLSCYSEVWVVPWLQHFEVPVLRCH

From publication PMC11088181
